In paper PMC10972746, “Substrate-induced condensation activates plant TIR domain proteins” (Nature, 2024):
These are yes or no findings as the source states them, for the method shown. Some binding calls cover weakened binding; strength is not graded here. Tags and fused reporters may be left off the sequences shown.

Target: RBA1–GFP (A. thaliana accession Ag-0) (UniProt F4HT77)
Test: SEC; gel filtration of purified GFP-fused proteins; Superose 6 column markers shown; peak fractions on SDS-PAGE with Coomassie staining; both purified

binding: binds
B1: RBA1–GFP (protein, UniProt F4HT77 1-191)
chain: MTSVSPRYRNVPVPKVFLSFRGEEIRHGFISHLADALERYGIMFIIDKDEQRGNDLTSLLLRIKESKVALVIFSSRFAESRFCMDEIVKMKECVDERKLLVIPIFYKVRARDVSGRTGDFGKKFWALAQKSRGCQIKEWMEALECISNKMGLSLGDGRSEADFIKEIVKEVERVLATFTSEDTEDHHCQTV
